According to patent publication US10556014B2, “Compounds containing a vascular disrupting agent” (Incanthera Ltd, priority 2007, dated 2020):
At least one peptide structure holds a part that was inferred or is arguable (an end, a ring closure or a residue). Where a SMILES comes first, the peptide text is derived from it. [ ]: non-standard residue; d: D form. The star is where a group is joined. NH(Colchicin-10-yl) = COc1cc2c(c(OC)c1OC)-c1ccc(N*)c(=O)cc1[C@@H](NC(C)=O)CC2; FITC = O=C1OC2(c3ccc(O)cc3Oc3cc(O)ccc32)c2ccc(NC(=S)*)cc21; hPhe = N[C@@H](CCc1ccccc1)C(=O)O; Cit = NC(=O)NCCC[C@H](N)C(=O)O; βAla = NCCC(=O)O

Amino acid sequences for entries named in this document (tags omitted). Residues count along the entry.
UniProt P14780, 94-707, species assumed: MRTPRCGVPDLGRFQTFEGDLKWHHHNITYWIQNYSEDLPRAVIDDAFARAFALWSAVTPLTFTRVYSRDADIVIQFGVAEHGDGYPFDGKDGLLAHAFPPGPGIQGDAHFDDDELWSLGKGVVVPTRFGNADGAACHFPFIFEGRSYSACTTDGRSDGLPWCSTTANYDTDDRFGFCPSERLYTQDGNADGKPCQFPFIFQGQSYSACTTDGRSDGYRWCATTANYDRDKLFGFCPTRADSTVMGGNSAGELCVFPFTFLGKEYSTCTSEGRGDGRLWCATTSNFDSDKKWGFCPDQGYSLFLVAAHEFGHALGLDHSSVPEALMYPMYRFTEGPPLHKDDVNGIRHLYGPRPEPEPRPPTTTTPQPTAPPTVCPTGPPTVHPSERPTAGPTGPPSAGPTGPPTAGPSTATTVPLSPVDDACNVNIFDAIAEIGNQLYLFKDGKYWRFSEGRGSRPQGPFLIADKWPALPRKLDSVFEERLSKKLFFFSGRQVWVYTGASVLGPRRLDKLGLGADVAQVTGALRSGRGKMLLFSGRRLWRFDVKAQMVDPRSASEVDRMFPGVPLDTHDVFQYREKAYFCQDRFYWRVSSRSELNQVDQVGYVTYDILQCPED
UniProt P09238, 99-476, species assumed: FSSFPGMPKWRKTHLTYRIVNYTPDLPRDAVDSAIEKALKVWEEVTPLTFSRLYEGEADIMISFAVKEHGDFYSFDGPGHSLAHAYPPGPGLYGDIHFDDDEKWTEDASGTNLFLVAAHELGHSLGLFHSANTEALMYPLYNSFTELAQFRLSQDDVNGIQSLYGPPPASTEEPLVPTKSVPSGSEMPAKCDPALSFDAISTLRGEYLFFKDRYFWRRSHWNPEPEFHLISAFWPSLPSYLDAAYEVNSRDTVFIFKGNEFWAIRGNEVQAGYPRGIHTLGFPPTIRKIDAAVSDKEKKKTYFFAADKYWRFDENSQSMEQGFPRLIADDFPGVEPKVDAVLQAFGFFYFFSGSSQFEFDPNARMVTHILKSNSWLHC

How the values were obtained:
Type in all cases: biochemical
Conditions in all cases: data not shown
recombinant MMP-9 = recombinant MMP-9 (Homo sapiens, UniProt P14780); experiment: Cleavage by recombinant MMP-9 (LC/MS/MS and mass spectrometry)
recombinant MMP-10 = recombinant MMP-10 (Homo sapiens, UniProt P09238); experiment: Cleavage by recombinant MMP-10 (LC/MS/MS and mass spectrometry)
recombinant MMP-14 = recombinant MMP-14 (Homo sapiens, UniProt P50281); experiment: Cleavage by recombinant MMP-14 (LC/MS/MS and mass spectrometry)
recombinant MMP-2 = molecular target: T1, recombinant MMP-2 (Homo sapiens, UniProt P08253); experiment: Cleavage by recombinant MMP-2 (LC/MS/MS and mass spectrometry)
T1 sequence (P08253 110-660): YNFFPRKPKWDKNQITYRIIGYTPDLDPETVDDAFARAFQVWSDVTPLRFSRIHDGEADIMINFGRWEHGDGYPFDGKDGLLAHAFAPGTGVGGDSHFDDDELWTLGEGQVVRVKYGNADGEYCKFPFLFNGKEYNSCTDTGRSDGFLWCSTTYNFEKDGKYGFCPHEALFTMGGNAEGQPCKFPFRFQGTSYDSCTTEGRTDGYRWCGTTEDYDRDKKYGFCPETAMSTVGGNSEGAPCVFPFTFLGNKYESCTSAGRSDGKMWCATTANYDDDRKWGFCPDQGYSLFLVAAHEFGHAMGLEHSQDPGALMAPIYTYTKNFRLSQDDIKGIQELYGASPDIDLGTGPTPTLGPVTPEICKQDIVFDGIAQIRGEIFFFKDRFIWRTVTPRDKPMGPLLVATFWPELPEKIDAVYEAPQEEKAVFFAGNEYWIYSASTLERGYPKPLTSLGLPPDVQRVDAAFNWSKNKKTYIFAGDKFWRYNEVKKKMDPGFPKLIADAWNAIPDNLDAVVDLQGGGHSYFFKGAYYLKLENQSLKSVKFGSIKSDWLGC

Row | Structure (SMILES) | cleavage by recombinant MMP-9 (recombinant MMP-9) | cleavage by recombinant MMP-10 (recombinant MMP-10) | cleavage by recombinant MMP-14 (recombinant MMP-14) | cleavage by recombinant MMP-2 (recombinant MMP-2)
1 | COc1cc2c(c(OC)c1OC)-c1ccc(NC(=O)[C@H](Cc3ccc(O)cc3)NC(=O)[C@H](CC(C)C)NC(=O)[C@H](Cc3ccc(O)cc3)NC(=O)[C@H](CCc3ccccc3)NC(=O)CNC(=O)[C@H](CCCNC(N)=O)NC(=O)[C@@H]3CCCN3C(=O)[C@H](CCC(=O)O)NC(=O)CCNC(=S)Nc3ccc4c(c3)C(=O)OC43c4ccc(O)cc4Oc4cc(O)ccc43)c(=O)cc1[C@@H](NC(C)=O)CC2 [Prodrug-1] ({FITC-βAla}-EP[Cit]G[hPhe]YLY-{NH(Colchicin-10-yl)}) | cleaved rapidly at the Glycine-Homophenylalanine (Gly-Hof) | cleaved rapidly at the Glycine-Homophenylalanine (Gly-Hof) | cleaved rapidly at the Glycine-Homophenylalanine (Gly-Hof) | cleaved rapidly at the Glycine-Homophenylalanine (Gly-Hof)
2 | COc1cc2c(c(OC)c1OC)-c1ccc(NC(=O)[C@H](Cc3ccc(O)cc3)NC(=O)[C@H](CC(C)C)NC(=O)[C@H](Cc3ccc(O)cc3)NC(=O)[C@H](CCc3ccccc3)NC(=O)CNC(=O)[C@H](CCCNC(N)=O)NC(=O)[C@H](CO)NC(=O)[C@H](CCCNC(=N)N)NC(=O)CCNC(=S)Nc3ccc4c(c3)C(=O)OC43c4ccc(O)cc4Oc4cc(O)ccc43)c(=O)cc1[C@@H](NC(C)=O)CC2 [Prodrug-2] ({FITC-βAla}-RS[Cit]G[hPhe]YLY-{NH(Colchicin-10-yl)}) | not cleaved | – | Cleaved rapidly at the Glycine-Homophenylalanine (Gly-Hof) | Cleaved slowly at the Homophenylalanine-Tyrosine (Hof-Tyr)
